PubChem BioAssay AID1159579, Peter MacCallum Cancer Centre, 2015

Aim: 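Find genes whose silencing alters migration of lymphatic endothelial cells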 (follow-up of hits)
System: human dermal lymphatic endothelial cells
Reagents: single siRNA against human genes, 25 nM
Read-out: 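High content images of wound closure area and cell nuclei counts, each the average of two wells, expressed against mock transfection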
Direction: migration relative to mock: higher = more migration into the scratch; mean nuclei count: higher = more cells remaining
Active means: 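Called active when the migration ratio is 0.6 or lower (impaired) or 1.3 or higher (accelerated), but inactive whenever the mean nuclei count falls under 3300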
Meaning of the calls: active = migration changed (impaired or accelerated); inactive = no migration change, or too few cells
The whole screen tested about 2,000 reagents; shown is a part drawn at random. 549 of all reagents (27%) were called active. 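Some migration ratios are negative; siRNAs with too few cells are inactive whatever their migration ratio.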 The numbers tell different reagents against one gene apart. No sequences are given here. The record does not give: the time to read-out.

| target | siRNA no. | migration relative to mock | migration and cell number class | mean nuclei count | Call |
| --- | --- | --- | --- | --- | --- |
| CHCHD3 | 1 | 0.77 | no change in migration or cell number | 6556 | inactive |
| CHCHD3 | 2 | 0.92 | no change in migration or cell number | 5151 | inactive |
| CHCHD3 | 3 | 1.06 | no change in migration or cell number | 6946 | inactive |
| CHCHD3 | 4 | 0.96 | no change in migration or cell number | 6124 | inactive |
| CHST8 | 1 | 0.76 | no change in migration or cell number | 6086 | inactive |
| CHST8 | 2 | 0.21 | migration reduced | 4928 | active |
| CHST8 | 3 | 0.48 | migration reduced | 4720 | active |
| CHST8 | 4 | 0.69 | no change in migration or cell number | 6102 | inactive |
| AMHR2 | 1 | 0.65 | no change in migration or cell number | 4584 | inactive |
| AMHR2 | 2 | 0.74 | no change in migration or cell number | 5081 | inactive |
| AMHR2 | 3 | 1.02 | no change in migration or cell number | 6584 | inactive |
| AMHR2 | 4 | 0.76 | no change in migration or cell number | 6168 | inactive |
| PPP1R15A | 1 | 1 | no change in migration or cell number | 4472 | inactive |
| PPP1R15A | 2 | 0.99 | no change in migration or cell number | 4571 | inactive |
| PPP1R15A | 3 | 1.21 | no change in migration or cell number | 5104 | inactive |
| PPP1R15A | 4 | 1.13 | no change in migration or cell number | 5751 | inactive |
| LAYN | 1 | 0.88 | no change in migration or cell number | 5202 | inactive |
| LAYN | 2 | 0.96 | no change in migration or cell number | 6706 | inactive |
| LAYN | 3 | 1.04 | no change in migration or cell number | 4320 | inactive |
| LAYN | 4 | 0.94 | no change in migration or cell number | 5556 | inactive |
| S1PR1 | 1 | 0.47 | migration reduced | 3961 | active |
| S1PR1 | 2 | 0.75 | no change in migration or cell number | 6740 | inactive |
| S1PR1 | 3 | 0.43 | migration reduced | 6640 | active |
| S1PR1 | 4 | -0.45 | too few cells; migration not scored | 3187 | inactive |
| GARIN6 | 1 | 1.19 | no change in migration or cell number | 6862 | inactive |
| GARIN6 | 2 | 0.98 | no change in migration or cell number | 5006 | inactive |
| GARIN6 | 3 | 0.94 | no change in migration or cell number | 6334 | inactive |
| GARIN6 | 4 | 1 | no change in migration or cell number | 5808 | inactive |
| CDK20 | 1 | 0.7 | no change in migration or cell number | 5678 | inactive |
| CDK20 | 2 | 0.65 | no change in migration or cell number | 4763 | inactive |
| CDK20 | 3 | -0.1 | too few cells; migration not scored | 2776 | inactive |
| CDK20 | 4 | 0.84 | no change in migration or cell number | 6611 | inactive |
| TPO | 1 | 0.28 | migration reduced | 4269 | active |
| TPO | 2 | 0.97 | no change in migration or cell number | 6510 | inactive |
| TPO | 3 | 1.01 | no change in migration or cell number | 4473 | inactive |
| TPO | 4 | 0.44 | too few cells; migration not scored | 2802 | inactive |
| KLHDC4 | 1 | 0.8 | no change in migration or cell number | 5029 | inactive |
| KLHDC4 | 2 | 1.25 | no change in migration or cell number | 4419 | inactive |
| KLHDC4 | 3 | 0.52 | migration reduced | 5438 | active |
| KLHDC4 | 4 | 0.75 | no change in migration or cell number | 4435 | inactive |
| ZNF319 | 1 | 0.82 | no change in migration or cell number | 5346 | inactive |
| ZNF319 | 2 | 0.7 | no change in migration or cell number | 5234 | inactive |
| ZNF319 | 3 | 0.89 | no change in migration or cell number | 6612 | inactive |
| ZNF319 | 4 | 0.68 | no change in migration or cell number | 5967 | inactive |
| APOA2 | 1 | 0.18 | migration reduced | 4669 | active |
| APOA2 | 2 | 0.62 | no change in migration or cell number | 5444 | inactive |
| APOA2 | 3 | 0.16 | migration reduced | 4344 | active |
| APOA2 | 4 | 0.24 | migration reduced | 5214 | active |

Called active, of those listed so far:
| target | siRNA no. | migration relative to mock | migration and cell number class | mean nuclei count | Call |
| --- | --- | --- | --- | --- | --- |
| CHST8 | 2 | 0.21 | migration reduced | 4928 | active |
| CHST8 | 3 | 0.48 | migration reduced | 4720 | active |
| S1PR1 | 1 | 0.47 | migration reduced | 3961 | active |
| S1PR1 | 3 | 0.43 | migration reduced | 6640 | active |
| TPO | 1 | 0.28 | migration reduced | 4269 | active |
| KLHDC4 | 3 | 0.52 | migration reduced | 5438 | active |
| APOA2 | 1 | 0.18 | migration reduced | 4669 | active |
| APOA2 | 3 | 0.16 | migration reduced | 4344 | active |
| APOA2 | 4 | 0.24 | migration reduced | 5214 | active |
